Data source: PubChem BioAssay AID743121 (NCATS, 2013)
The whole screen tested about 26,000 reagents; shown is a part drawn at random. 167 of all reagents (0.63%) were called active. 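Calls are per gene from RSA p-values that are not deposited; an individual active-marked siRNA can sensitise only weakly.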 Reagents against one gene are numbered here.

Test: 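Genes whose silencing strengthens cell killing by camptothecin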 (primary screen)
Cells: MDA-MB-231 cells, a human breast cancer line
Reagent: single siRNA against human genes, 20 nM siRNA (0.8 pmol per well)
Duration: 120 h (drug added 48 h after transfection, read 72 h later)
Challenge: camptothecin 20 nM (about EC30) for 72 h; vehicle 0.1% DMSO in parallel plates
Measured: 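Cell viability by ATP luminescence (CellTiter-Glo) as % of non-targeting siRNA wells, and the log2 ratio of viability without drug over viability with camptothecin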
Scale: log2 vehicle/camptothecin viability: higher = stronger sensitisation to camptothecin; viability with camptothecin and viability without drug: higher = more viable cells
Call rule: 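Each gene scored by redundant siRNA activity (RSA) over its individual siRNA ratios; a gene is called active at p < 0.001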

| log2 vehicle/camptothecin viability | viability with camptothecin (% of control) | viability without drug (% of control) | Call | gene knocked down | reagent |
| --- | --- | --- | --- | --- | --- |
| -0.216 | 74.5 | 64.2 | inactive | BAG3 | 1 |
| 0.0737 | 85.8 | 90.3 | inactive | BAG3 | 2 |
| -0.145 | 96.5 | 87.3 | inactive | BAG3 | 3 |
| 0.0444 | 73.9 | 76.2 | inactive | BAG3 | 4 |
| 0.0751 | 45.7 | 48.1 | inactive | CMPK1 | 1 |
| -0.327 | 40.3 | 32.2 | inactive | CMPK1 | 2 |
| -0.314 | 103 | 83 | inactive | CMPK1 | 3 |
| -0.017 | 97.5 | 96.4 | inactive | CMPK1 | 4 |
| -0.32 | 119 | 95.5 | inactive | SYNE1 | 1 |
| 0.262 | 24.5 | 29.3 | inactive | SYNE1 | 2 |
| 0.255 | 39.7 | 47.4 | inactive | SYNE1 | 3 |
| -0.0544 | 90.1 | 86.8 | inactive | SYNE1 | 4 |
| 0.00461 | 97 | 97.3 | inactive | SNX4 | 1 |
| 0.296 | 22.3 | 27.4 | inactive | SNX4 | 2 |
| -0.558 | 83.1 | 56.5 | inactive | SNX4 | 3 |
| -0.069 | 59.9 | 57.1 | inactive | SNX4 | 4 |
| -0.141 | 65 | 59 | inactive | MS4A2 | 1 |
| 0.219 | 68.5 | 79.7 | inactive | MS4A2 | 2 |
| 0.0786 | 70.3 | 74.2 | inactive | MS4A2 | 3 |
| -0.387 | 94.4 | 72.1 | inactive | MS4A2 | 4 |
| -0.549 | 71.6 | 48.9 | inactive | PTPRA | 1 |
| -0.398 | 119 | 90.2 | inactive | PTPRA | 2 |
| -0.237 | 71.7 | 60.8 | inactive | PTPRA | 3 |
| -0.233 | 91.4 | 77.8 | inactive | PTPRA | 4 |
| -0.161 | 82.5 | 73.8 | inactive | TOMM20 | 1 |
| -0.164 | 106 | 94.6 | inactive | TOMM20 | 2 |
| -0.708 | 111 | 67.7 | inactive | TOMM20 | 3 |
| -0.459 | 63.6 | 46.2 | inactive | TOMM20 | 4 |
| 0.487 | 44.3 | 62 | inactive | CYP11A1 | 1 |
| -0.214 | 108 | 93.5 | inactive | CYP11A1 | 2 |
| -0.553 | 75.2 | 51.3 | inactive | CYP11A1 | 3 |
| -0.147 | 89.9 | 81.2 | inactive | CYP11A1 | 4 |
| 0.811 | 56.9 | 99.7 | inactive | DVL1 | 1 |
| -0.622 | 81.1 | 52.7 | inactive | DVL1 | 2 |
| -0.0961 | 91.3 | 85.4 | inactive | DVL1 | 3 |
| -0.2 | 104 | 90.5 | inactive | DVL1 | 4 |
| -0.733 | 99.6 | 59.9 | inactive | KCNA6 | 1 |
| -0.0262 | 82.3 | 80.8 | inactive | KCNA6 | 2 |
| -0.235 | 86 | 73.1 | inactive | KCNA6 | 3 |
| 0.011 | 93.1 | 93.8 | inactive | BCL2L11 | 1 |
| -0.143 | 107 | 96.5 | inactive | BCL2L11 | 2 |
| 0.0802 | 105 | 111 | inactive | BCL2L11 | 3 |
| -0.125 | 59.7 | 54.8 | inactive | BCL2L11 | 4 |
| -0.491 | 97.8 | 69.6 | inactive | BCL2L11 | 5 |
| -0.0426 | 108 | 105 | inactive | BCL2L11 | 6 |
| -0.166 | 85.9 | 76.6 | inactive | BCL2L11 | 7 |
| 0.362 | 47.4 | 60.9 | inactive | BCL2L11 | 8 |
| -0.405 | 86.4 | 65.2 | inactive | ULK4 | 1 |
| -0.0607 | 97.4 | 93.4 | inactive | ULK4 | 2 |
| 0.363 | 37.1 | 47.7 | inactive | ULK4 | 3 |
| -0.486 | 99.5 | 71 | inactive | ULK4 | 4 |
| 0.0165 | 107 | 108 | inactive | KCNJ15 | 1 |
| -0.436 | 90.2 | 66.7 | inactive | KCNJ15 | 2 |
| -0.198 | 48 | 41.9 | inactive | KCNJ15 | 3 |
| -0.107 | 78.7 | 73.1 | inactive | KCNJ15 | 4 |
| -0.179 | 68 | 60.1 | inactive | PKM | 1 |
| -0.25 | 65 | 54.7 | inactive | PKM | 2 |
| -0.159 | 45.2 | 40.4 | inactive | PKM | 3 |
| -0.292 | 66.6 | 54.4 | inactive | PKM | 4 |
| -0.159 | 95.2 | 85.2 | inactive | ACVR1C | 1 |
| 0.0574 | 86.5 | 90 | inactive | ACVR1C | 2 |
| -0.122 | 67.7 | 62.2 | inactive | ACVR1C | 3 |
| -0.0634 | 99.6 | 95.3 | inactive | OPN3 | 1 |
| -0.249 | 87.5 | 73.6 | inactive | OPN3 | 2 |
| -0.344 | 81.6 | 64.3 | inactive | OPN3 | 3 |
| -0.293 | 116 | 94.4 | inactive | OPN3 | 4 |
| -0.446 | 88.4 | 64.9 | inactive | AICDA | 1 |
| -0.242 | 125 | 106 | inactive | AICDA | 2 |
| -0.176 | 83.4 | 73.8 | inactive | AICDA | 3 |
| 0.328 | 17.7 | 22.2 | inactive | AICDA | 4 |

8 successive entries from above, quoted:
| log2 vehicle/camptothecin viability | viability with camptothecin (% of control) | viability without drug (% of control) | Call | gene knocked down | reagent |
| --- | --- | --- | --- | --- | --- |
| -0.314 | 103 | 83 | inactive | CMPK1 | 3 |
| -0.017 | 97.5 | 96.4 | inactive | CMPK1 | 4 |
| -0.32 | 119 | 95.5 | inactive | SYNE1 | 1 |
| 0.262 | 24.5 | 29.3 | inactive | SYNE1 | 2 |
| 0.255 | 39.7 | 47.4 | inactive | SYNE1 | 3 |
| -0.0544 | 90.1 | 86.8 | inactive | SYNE1 | 4 |
| 0.00461 | 97 | 97.3 | inactive | SNX4 | 1 |
| 0.296 | 22.3 | 27.4 | inactive | SNX4 | 2 |
